± gives the standard deviation. Only a part is listed here, and it is no random draw. Many of these values have a large error.
system: MILI (PIWIL2) piRISC loaded with L1MC piRNA (26 nt); assay: pre-steady-state target cleavage rate (min^-1); MIWI and MILI are mouse PIWI proteins and EfPiwi is from a freshwater sponge; tags in brackets are library labels; higher = faster piRNA-guided slicing of the target; conditions: guide: L1MC piRNA 5'p-UAACUAAAUACUAUGCAAGCUGUAGG; auxiliary factor: 500 nM mouse GTSF1
In short: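 Cleave-'n-Seq used a transcribed, DNA-blocked target RNA library at 0.1 nM and active affinity-purified piRISC with one synthetic guide at 1 nM, with or without 500 nM GTSF1 partner protein, in HEPES–potassium acetate buffer at 33 °C for 0–8 or 0–960 min. Uncleaved targets were sequenced and normalised to depth and to weakly complementary targets, and three trials were pooled with k3 capped at 0.0001 min^-1. The pre-steady-state cleavage rate was estimated by a burst-and-steady-state fit.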

Sequence | pre-steady-state target cleavage rate
UCCUGCUUCAGCUUGCAUUGUAUUUAGUUA | 0.218 ± 0.013
UCCUGGAUCUGCUUGCAUUGUAUUUAGUUA | 0.159 ± 0.015
UCCUGGAUGUGCUUGCAUAGUAUUUAGUUUA | 0.141 ± 0.015
UCCUGGAUGUCGAACGUAUGUAUUUAUUUA | < 0.0001
UCCUGGAUGUCGAACGAUGAGUAUUUAGUUA | 0.000132 ± 0.019
UCCUGCUUCAGCUUGCUUAGUAUUUAGUUA | 0.287 ± 0.011
UCCUGGAACAGCUUGCAUAGUAUAUUGUUA | 0.153 ± 0.029
UCCUGCUACCAGCUUGCAUAGUAUUUAGUUA | 0.24 ± 0.019
UCCUGGAUGUCGAACCAUAGUAUUCAGUUA | < 0.0001
UCCUGGAUGUGCUUGCAUAGUAUUAACUUA | 0.00166 ± 0.0068
UCCUGGAUGUCGAACCAUAGAUUUAGUUA | 0.000143 ± 0.037
UCCUGGAUGUCCUUGCAUAGUAUUUAGUUUA | 0.104 ± 0.015
UCCUCCUACAGCUAGCAUUGUAUUUAGUUA | 0.184 ± 0.013

same assay, conditions: guide: L1MC piRNA 5'p-UAACUAAAUACUAUGCAAGCUGUAGG; auxiliary factor: none (no GTSF1)

Sequence | pre-steady-state target cleavage rate
UCCUCCUACAGCUAGCAUAGUAUUUUGUUA | 0.00245 ± 0.0025
UCCUCCUACAGCUUGCAUAGAAUUAAGUUA | 0.00126 ± 0.0046
UCCUGCUUCAGCUUGCAUUGUAUUUAGUUA | 0.0103 ± 0.0023
UCCUGGAUCUGCUUGCAUUGUAUUUAGUUA | 0.00477 ± 0.0023
UCCUGCAUGAGCUUGCAUAGUAUUUAGAAA | 0.00129 ± 0.0043
UCCUGGAUGUGCUUGCAUAGUAUUUAGUUUA | 0.00735 ± 0.0032
UCCUGGAUGUCGUUCCAUAGAAUUUAGUUA | 0.000443 ± 0.012
UCCUGGAACAGCUUGCAUAGUAUUUUGUUA | 0.00231 ± 0.0036
UCCUCCUACAGCUUGCAUAGUUUUUAGAAA | 0.00123 ± 0.0044
UCCUGGAUGUCGAACGAUGAGUAUUUAGUUA | < 0.0001
UCCUGCUUCAGCUUGCUUAGUAUUUAGUUA | 0.00807 ± 0.0021
UCCUGGAACAGCUUGCAUAGUAUAUUGUUA | 0.0015 ± 0.0048
UCCUGGAUGUCGAACCAUAGUAUUUUCAUA | 0.000245 ± 0.015
UCCUGCUACACCUUGCAUAGUAUAUAGUUA | 0.00278 ± 0.0042
UCCUGGAUGUCGAACCAUAGUAUUUAGGUUA | 0.000277 ± 0.014
UCCUGGUACAGCUUGCAUAGUAUUUACAUA | 0.00276 ± 0.0042
UCCUGGAUGUCGAUGCAUAGUAUUAAGUAA | 0.00109 ± 0.0048
UCCUGCUACCAGCUUGCAUAGUAUUUAGUUA | 0.0115 ± 0.0033
UCCUGGAUGUCGAACGUUUAGUAUUUAGUUA | 0.000499 ± 0.01

Sequence | pre-steady-state target cleavage rate
UCCUGGAUGUCGUUGCAUACAUAAAUCAAA [g12:g18:cont:t1A] | 0.000336 ± 0.014
UCCUGGAUGUCGAACGAUAGUAUUUUAGUUA | 0.000125 ± 0.04
UCCUGGAUGUCGAUGCAUAGAUAUUAGUUA | 0.00025 ± 0.017
UCCUGGAUGUCGAACGUAAGUCUUUAGUUA | 0.000193 ± 0.019
UCCUGGAUGUCGUUGGAUAGUAUAUAGUUA | 0.000107 ± 0.062
UCCUCCUACAGCUUGCAUAGAAUAUAGUUA | 0.00122 ± 0.0043
UCCUGGAACAGCUUGCAUUGUAUUUACUUA | 0.00207 ± 0.0035
UCCUGGAUGUCGAACGUAUGUUAAUAGUUA | 0.000108 ± 0.04
UCCUGGAUGUCGAACGUAAGUAAUUAGAUA | 0.000206 ± 0.017
UCCUGGAUGUGCUUGCAUAGUAUUUCAGUUA | 0.0015 ± 0.0064
UCCUGGAUGUGCUUGCAUAGUAUUAACUUA | 0.00143 ± 0.0052
UCCUGGAUGUCCUUGCAUAGUAUUUAGUUUA | 0.00891 ± 0.0035
UCCUGGAUGUCGUUGGAUAGUAAUUAGUUA | 0.000523 ± 0.011
UCCUCCUACAGCUAGCAUUGUAUUUAGUUA | 0.00496 ± 0.0019
UCCUGGAUGUCGAACCAUAGUAUGUAGUUA | 0.000236 ± 0.022
UCCUGCUACAGCUUGCAUAGAAUUUAGUUA | 0.00225 ± 0.0031
UCCUGGAUCAGCUUGCAUAGUAUUUUGUAA | 0.00207 ± 0.0032
UCCUGGAUGUCGAACCAUAGUAUUGAGUUA | < 0.0001

From the supplement of paper PMC10338343
